Reference: patent publication US11793218B2, “Sweetener and flavor compositions, methods of making and methods of use thereof” (EPC Natural Products Co., Ltd., priority 2018, dated 2023)

How the values were obtained:
[1] = Sensory analysis of odor/smell, color and taste of Maillard reaction samples at 22 C (Examples 55-62); assay type: in vivo, human
Description: The reaction partners were dissolved in water and then warmed glycerin (60° C.) was added. […]
[…] After 20 minutes in the ice bath the sealed vials were put in a water bath set to 22° C.
The odor/smell was assessed independently by 3 persons; the final description was agreed after discussion. […] The taste was assessed independently by 3 persons either in the original samples or after appropriate dilution to achieve relevant concentrations of sugars and steviol-glycosides (i.e. 5-9% SE); the final description was agreed after discussion.

[2] = HPLC/DAD/MS detection of MRI (Amadori) products and degradation kinetics of reactants at various pH-conditions; details: reaction of Phe and Suc, % formation from degraded Phe
[3] = Table 56.1, negative controls (no carbohydrate source), 10 ml glycerin/water=9:1, 100° C., 40 minutes

Row | SMILES | Color [1, 3] | also measured
1 | C[C@H](N)C(=O)O [8.91 mg Ala] | No color | 
2 | N[C@@H](CO)C(=O)O [10.5 mg Ser] | Slightly Yellow | 
3 | O=C(O)[C@@H]1CCCN1 [11.5 mg Pro] | Slightly Yellow | 
4 | N[C@@H](CS)C(=O)O [12.1 mg Cys] | Slightly Yellow | 
5 | CC[C@H](C)[C@H](N)C(=O)O [13.11 mg Ile] | No color | 
6 | N[C@@H](Cc1ccccc1)C(=O)O [16.5 mg Phe] |  | Color ([1]; Example 58, before reaction): No color
7 | N[C@@H](Cc1ccc(O)cc1)C(=O)O [18.1 mg Tyr] | No color | 
8 | O=C(O)[C@H](Cc1ccccc1)NCC(=O)[C@@H](O)[C@H](O)[C@H](O)CO [MRI (Phe-Glu)] |  | % formation ([2]; pH = 5.5): <0.10%; % formation ([2]; pH = 7.0): 0.54%; % formation ([2]; pH = 8.5): 0.84%
